The assay addresses β-tubulin (in the GDP-taxol microtubule) (porcine). Description: cryo-EM structure; GDP-taxol MTs (4 μM) on the grid, 353WT (28 μM) applied, apyrase (nucleotide-free state); 7.0 Å; both purified.

Results are given in words; binding and its absence hold for the method and conditions named. Binding can be weak; no strength is given.

B1: KIF19A-353 (mouse KIF19A motor domain, monomeric construct) (domain or fragment, UniProt Q99PT9 1-353)
chain: MKDSGDSKDQQLMVALRVRPISVAELEEGATLIAHKMDEQMVVLMDPMEDPDDILRAHRSREKSYLFDVAFDFTATQEMVYQATTKSLIEGVISGYNATVFAYGPTGCGKTYTMLGTDHEPGIYVRTLNDLFRAIEETSNDMEYEVSMSYLEIYNEMIRDLLNPALGYLELREDSKGVIQVAGITEVSTINAKEIMQLLMKGNRQRTQEPTAANQTSSRSHAVLQVAVRQRSRVKNILQEVRQGRLFMIDLAGSERASQTQNRGQRMKEGAHINRSLLALGNCINALSDKGSNKYINYRDSKLTRLLKDSLGGNSRTVMIAHISPASTAFEESRNTLTYAGRAKNIRTRVKQN
Consider B1, for which the binding entry was “binds”.

Values taken from PMC5045296.
